Results deposited as PubChem BioAssay AID1259327 (Drosophila RNAi Screening Center, 2017).
Shown is a random part of about 3,100 reagents tested. Of all reagents, 378 (12%) got an active call. 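Hits include both directions; z-score sign shows ATP rise or fall; raw luminescence values are not plate-normalised.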 Unmarked entries are inactive. Reagents against one gene are numbered here. No sequences are given here. The record does not give: the amount of reagent.

- Aim: 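Data from controls in screens of zinc and manganese toxicity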
- Cell system: Drosophila S2R+ cells
- Knock-down reagent: long dsRNA against Drosophila genes
- Timing: 5 days (water added on day 4, read one day later)
- Challenge: water added as vehicle, no metal, one day before read-out
- Read-out: 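Luciferase ATP signal per well, normalised to plate mean, duplicate average converted to z-score across plates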
- Reading the numbers: ATP z-score: higher = more total ATP than typical wells; ATP luminescence: higher = more total ATP
- Hit rule: 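Called active when the ATP z-score exceeds 1.5 or falls below -1.5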
- Meaning of the calls: active = hit: ATP up or down; inactive = no clear ATP change

Or92a showed ATP z-score, duplicate mean 0.247; ATP luminescence, replicate 1 (RLU) = 2.53e5; ATP luminescence, replicate 2 (RLU) = 9.36e5.
After knock-down of Gr85a #1, the screen gave ATP z-score, duplicate mean -0.911; ATP luminescence, replicate 1 (RLU) = 2.60e5; ATP luminescence, replicate 2 (RLU) = 6.59e5.
Against Gr85a #2 the deposit lists ATP z-score, duplicate mean 0.0706; ATP luminescence, replicate 1 (RLU) = 4.55e5; ATP luminescence, replicate 2 (RLU) = 4.85e5.
After knock-down of PIG-U #1 the results were ATP z-score, duplicate mean 1.1; ATP luminescence, replicate 1 (RLU) = 5.36e5; ATP luminescence, replicate 2 (RLU) = 5.78e5.
Depletion of PIG-U #2 resulted in: ATP z-score, duplicate mean 0.234; ATP luminescence, replicate 1 (RLU) = 9.06e5; ATP luminescence, replicate 2 (RLU) = 8.01e5.
Against ppk11 the deposit lists ATP z-score, duplicate mean -0.255; ATP luminescence, replicate 1 (RLU) = 6.97e5; ATP luminescence, replicate 2 (RLU) = 7.01e5.
With knock-down of Karybeta3 #1, the screen gave ATP z-score, duplicate mean 0.369; ATP luminescence, replicate 1 (RLU) = 7.13e5; ATP luminescence, replicate 2 (RLU) = 8.30e5.
For Karybeta3 #2, the values are ATP z-score, duplicate mean 0.314; ATP luminescence, replicate 1 (RLU) = 5.40e5; ATP luminescence, replicate 2 (RLU) = 6.90e5.
Silencing of MME1 #1 gave: ATP z-score, duplicate mean 0.0998; ATP luminescence, replicate 1 (RLU) = 4.90e5; ATP luminescence, replicate 2 (RLU) = 4.82e5.
MME1 #2 gave ATP z-score, duplicate mean -0.129; ATP luminescence, replicate 1 (RLU) = 4.79e5; ATP luminescence, replicate 2 (RLU) = 4.12e5.
After knock-down of AstA-R2, the screen gave ATP z-score, duplicate mean 0.329; ATP luminescence, replicate 1 (RLU) = 9.37e5; ATP luminescence, replicate 2 (RLU) = 8.45e5.
With knock-down of CG13793 #1, the screen gave ATP z-score, duplicate mean -0.615; ATP luminescence, replicate 1 (RLU) = 7.01e5; ATP luminescence, replicate 2 (RLU) = 6.21e5.
Silencing of CG13793 #2 came out at: ATP z-score, duplicate mean -1.11; ATP luminescence, replicate 1 (RLU) = 6.14e5; ATP luminescence, replicate 2 (RLU) = 7.58e5.
Knock-down of Osi6 #1 came out at: ATP z-score, duplicate mean 0.543; ATP luminescence, replicate 1 (RLU) = 1.01e6; ATP luminescence, replicate 2 (RLU) = 9.29e5.
Osi6 #2 showed ATP z-score, duplicate mean -1.49; ATP luminescence, replicate 1 (RLU) = 6.30e5; ATP luminescence, replicate 2 (RLU) = 7.02e5.
CG43373 showed ATP z-score, duplicate mean -0.62; ATP luminescence, replicate 1 (RLU) = 8.33e5; ATP luminescence, replicate 2 (RLU) = 7.97e5.
Silencing of 18w resulted in: ATP z-score, duplicate mean -0.588; ATP luminescence, replicate 1 (RLU) = 8.26e5; ATP luminescence, replicate 2 (RLU) = 6.84e5.
With knock-down of Elo68alpha, the screen gave ATP z-score, duplicate mean -0.842; ATP luminescence, replicate 1 (RLU) = 5.01e5; ATP luminescence, replicate 2 (RLU) = 5.16e5.
Depletion of Gr58c came out at: ATP z-score, duplicate mean 0.364; ATP luminescence, replicate 1 (RLU) = 7.44e5; ATP luminescence, replicate 2 (RLU) = 7.85e5.

5 of these entries, set out differently:
Target gene	reagent no.	ATP z-score, duplicate mean	ATP luminescence, replicate 1 (RLU)	ATP luminescence, replicate 2 (RLU)
ppk11	1	-0.255	6.97e5	7.01e5
Karybeta3	1	0.369	7.13e5	8.30e5
Karybeta3	2	0.314	5.40e5	6.90e5
MME1	1	0.0998	4.90e5	4.82e5
MME1	2	-0.129	4.79e5	4.12e5

Continued:
Abca3 showed ATP z-score, duplicate mean 0.546; ATP luminescence, replicate 1 (RLU) = 7.76e5; ATP luminescence, replicate 2 (RLU) = 8.29e5.
After knock-down of Pss #1, the record shows ATP z-score, duplicate mean -0.777; ATP luminescence, replicate 1 (RLU) = 8.14e5; ATP luminescence, replicate 2 (RLU) = 7.74e5.
For Pss #2 the deposit lists ATP z-score, duplicate mean 0.486; ATP luminescence, replicate 1 (RLU) = 5.05e5; ATP luminescence, replicate 2 (RLU) = 4.66e5.
Knock-down of Ir31a gave: ATP z-score, duplicate mean -0.61; ATP luminescence, replicate 1 (RLU) = 7.53e5; ATP luminescence, replicate 2 (RLU) = 7.96e5.
With knock-down of CG12914 the results were ATP z-score, duplicate mean -1.68 (active); ATP luminescence, replicate 1 (RLU) = 4.17e5; ATP luminescence, replicate 2 (RLU) = 5.18e5.
Silencing of CG1824 #1 came out at: ATP z-score, duplicate mean 1.81 (active); ATP luminescence, replicate 1 (RLU) = 5.53e5; ATP luminescence, replicate 2 (RLU) = 7.02e5.
With knock-down of CG1824 #2, the screen gave ATP z-score, duplicate mean -0.0541; ATP luminescence, replicate 1 (RLU) = 5.07e5; ATP luminescence, replicate 2 (RLU) = 4.15e5.
With knock-down of CG10761 #1, the screen gave ATP z-score, duplicate mean 1.55 (active); ATP luminescence, replicate 1 (RLU) = 6.54e5; ATP luminescence, replicate 2 (RLU) = 6.68e5.
Against CG10761 #2, the values are ATP z-score, duplicate mean 1.1; ATP luminescence, replicate 1 (RLU) = 1.04e6; ATP luminescence, replicate 2 (RLU) = 9.60e5.
Silencing of Sfxn1-3 gave: ATP z-score, duplicate mean -0.818; ATP luminescence, replicate 1 (RLU) = 8.35e5; ATP luminescence, replicate 2 (RLU) = 7.44e5.
mthl10 #1 showed ATP z-score, duplicate mean 0.755; ATP luminescence, replicate 1 (RLU) = 6.77e5; ATP luminescence, replicate 2 (RLU) = 6.99e5.
mthl10 #2 gave ATP z-score, duplicate mean 1.26; ATP luminescence, replicate 1 (RLU) = 7.49e5; ATP luminescence, replicate 2 (RLU) = 1.02e6.
Depletion of mthl10 #3 resulted in: ATP z-score, duplicate mean -0.018; ATP luminescence, replicate 1 (RLU) = 4.93e5; ATP luminescence, replicate 2 (RLU) = 6.65e5.
